{
  "sequences": {"note": "The chains behind the UniProt entries cited, without tags or fusion partners. Residues count along the entry.", "UniProt P05067, 672-713 limits assumed": "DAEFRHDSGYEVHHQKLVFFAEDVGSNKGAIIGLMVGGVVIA"},
  "source": "patent EP2217930B1",
  "about": "“MALDI MS-BASED HIGH-THROUGHPUT SCREENING METHOD FOR SUBSTANCES INHIBITING AGGREGATION OF ALZHEIMER'S AMYLOID BETA PEPTIDES” (Tallinn University of Technology, priority 2007, dated 2009)",
  "target": "T1, Aβ42 (Homo sapiens, UniProt P05067)",
  "T1 construct": "Both 40 and 42 amino acid amyloid beta peptides were purchased from rPeptide; purchased rPeptide (Bogart, USA)",
  "test": "automatic MALDI-TOF MS high-throughput screening assay for inhibitors of Aβ42 aggregation (detection of monomeric Aβ42, insulin B chain as internal standard)",
  "assay_type": "biochemical",
  "conditions": "10 µM or higher concentration of tested compound; Aβ42 monomer peak after 2 h incubation; 5 µM Aβ42",
  "note": "Some results were stated once for a whole list of compounds, not compound by compound.",
  "data": [
    {"compound": "Nc1c(/N=N/c2ccc(-c3ccc(/N=N/c4cc(S(=O)(=O)O)c5ccccc5c4N)cc3)cc2)cc(S(=O)(=O)O)c2ccccc12", "note": "[Congo Red]", "values": [
      {"measurement": "inhibitory effect on Aβ42 aggregation", "result": "did not exhibit inhibitory effect"}
    ]},
    {"compound": "COc1ccc2[nH]cc(CCNC(C)=O)c2c1", "note": "[Melatonin]", "values": [
      {"measurement": "inhibitory effect on Aβ42 aggregation", "result": "did not exhibit inhibitory effect"}
    ]}
  ]
}
